The target in series [1] is GST-Smad3/MH1 (Homo sapiens) (UniProt P84022). Briefly: EMSA. Particulars: specific but inefficient, typically less than 5% of input probe shifted; purified recombinant protein; protein details: GST N-terminal (pGEX2TK, Pharmacia); label: 32P.
In series [2] the target is T1, GST-Smad4/MH1 (Homo sapiens) (UniProt Q13485).
T1 sequence (looked up): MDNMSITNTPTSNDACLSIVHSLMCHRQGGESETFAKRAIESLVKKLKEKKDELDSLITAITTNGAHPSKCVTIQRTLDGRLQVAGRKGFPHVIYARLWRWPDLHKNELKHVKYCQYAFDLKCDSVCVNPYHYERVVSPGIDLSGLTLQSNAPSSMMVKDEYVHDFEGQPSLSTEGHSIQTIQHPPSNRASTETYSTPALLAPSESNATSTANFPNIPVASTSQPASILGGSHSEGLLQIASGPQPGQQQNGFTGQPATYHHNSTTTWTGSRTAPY
Briefly: EMSA. Conditions: specific but inefficient, typically less than 5% of input probe shifted; purified recombinant protein; protein details: GST N-terminal (pGEX2TK, Pharmacia); label: 32P. In general terms: A gel shift assay detects complexes by their altered migration in electrophoresis.

Sequences of proteins named here, by UniProt entry; tags and fusion partners are left off. Residues count along the entry.
UniProt P84022, 1-200: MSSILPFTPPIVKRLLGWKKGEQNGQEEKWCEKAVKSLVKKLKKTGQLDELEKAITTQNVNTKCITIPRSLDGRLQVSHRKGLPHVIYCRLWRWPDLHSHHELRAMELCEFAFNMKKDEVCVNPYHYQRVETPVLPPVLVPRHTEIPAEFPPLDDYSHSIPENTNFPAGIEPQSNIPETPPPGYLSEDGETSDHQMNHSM

Weaker means in comparison with the reference protein, sequence or condition of that experiment. For some assays here: Tags and fusion partners may be left off the protein sequences shown.

In the case of “TTTGTGCTTGGCTGCCGTCGCGATTCGACAACTTTGG (double strand) [Vg probe]”, the binding result in series [1] and in series [2] was “binds more weakly” in each case.

The record behind these values is patent US6100032.
